Source: patent US20100150924A1 (published 2010)
These are yes or no findings as the source states them, for the method shown. Some results given as binding are weak or reduced against the parent protein; the word gives no strength. Sequences can lack the tags named with a protein.

Tests used:
[1] = biological target: T1, endogenous rat Necl1 (on cultured DRG neurons; also in rat brain membranes) (rat) (UniProt Q1WIM3); test: Fc-fusion binding to DRG neurons after Necl1 siRNA
T1 sequence (looked up): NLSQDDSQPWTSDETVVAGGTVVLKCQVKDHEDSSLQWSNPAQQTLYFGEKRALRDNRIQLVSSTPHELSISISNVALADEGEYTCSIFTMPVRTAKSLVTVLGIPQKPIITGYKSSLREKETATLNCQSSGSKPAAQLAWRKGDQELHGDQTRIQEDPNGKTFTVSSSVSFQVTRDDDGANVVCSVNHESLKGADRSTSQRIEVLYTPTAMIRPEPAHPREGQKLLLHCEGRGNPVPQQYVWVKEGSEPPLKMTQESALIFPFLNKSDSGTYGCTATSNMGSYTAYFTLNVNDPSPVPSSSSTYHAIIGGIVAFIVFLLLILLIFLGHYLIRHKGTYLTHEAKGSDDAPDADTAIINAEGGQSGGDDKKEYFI

[2] = biological target: T1, endogenous rat Necl1 (on cultured DRG neurons; also in rat brain membranes) (rat); test: clustering of bound Fc-fusion on cells, then immunostaining
[3] = biological target: T1, endogenous rat Necl1 (on cultured DRG neurons; also in rat brain membranes) (rat); test: co-clustering on DRG neurons after aggregation of the Fc-fusion
[4] = biological target: T1, endogenous rat Necl1 (on cultured DRG neurons; also in rat brain membranes) (rat); test: Fc-fusion binding to DRG neurons after Necl1 siRNA or control siRNA

Measured: binding

B1: Necl4-Fc (extracellular domain of Necl4 fused to the constant region of human IgG1) (Fc fusion)
chain: QEVQTENVTVAEGGVAEITCRLHQYDGSIVVIQNPARQTLFFNGTRALKDERFQLEEFSPRRVRIRLSDARLEDEGGYFCQLYTEDTHHQIATLTVLVAPENPVVEVREQAVEGGEVELSCLVPRSRPAAVLRWYRDRKELKGVSSGQENGKVWSVASTVRFRVDRKDDGGIVICEAQNQALPSGHSKQTQYVLDVQYSPTARIHASQAVVREGDTLVLTCAVTGNPRPNQIRWNRGNESLPERAEAVGETLTLPGLVSADNGTYTCEAANKHGHARALYVLVVYDPGAVVEAQTSVPY
notes: also called soluble Necl-4; soluble Necl4; not shown: constant region (Fc) of human IgG1
binds: all assays above
